In the supplement of paper PMC4604168 (melanoma cell lines):
The other results are listed elsewhere or left out. Many values rest on one well or one pass, so single values are uncertain.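 Cells were imaged in 1,536-well plates, and nuclei stained with an antibody against cleaved PARP were counted against all DNA-stained nuclei to give the apoptosis fraction. Screening doses were chosen to leave most cells alive, and resting and induced cleaved-PARP levels differ strongly between cell lines.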

How the values were obtained:
Experiment in all cases: cleaved PARP positive nuclei fraction relative to DMSO control; melanoma cells; higher = more apoptosis
Conditions in all cases: library dose: low library concentration; 72 h
501Mel = system: 501Mel
A101D = system: A101D
A2058 = system: A2058
A375 = system: A375
C32 = system: C32
CBRC013 = system: CBRC013 (line from a melanoma biopsy)
CBRC014 = system: CBRC014 (line from a melanoma biopsy)
CBRC016 = system: CBRC016 (line from a melanoma biopsy)
CBRC017 = system: CBRC017 (line from a melanoma biopsy)
CBRC034 = system: CBRC034 (line from a melanoma biopsy)
COLO792 = system: COLO792
COLO800 = system: COLO800
COLO829 = system: COLO829
G361 = system: G361
IPC-298 = system: IPC-298
IST-MEL1 = system: IST-MEL1
LB2518-MEL = system: LB2518-MEL
LOXIMVI = system: LOXIMVI

Compound | cleaved PARP positive nuclei fraction (501Mel) | cleaved PARP positive nuclei fraction (A101D) | cleaved PARP positive nuclei fraction (A2058) | cleaved PARP positive nuclei fraction (A375) | cleaved PARP positive nuclei fraction (C32) | cleaved PARP positive nuclei fraction (CBRC013) | cleaved PARP positive nuclei fraction (CBRC014) | cleaved PARP positive nuclei fraction (CBRC016) | cleaved PARP positive nuclei fraction (CBRC017) | cleaved PARP positive nuclei fraction (CBRC034) | cleaved PARP positive nuclei fraction (COLO792) | cleaved PARP positive nuclei fraction (COLO800) | cleaved PARP positive nuclei fraction (COLO829) | cleaved PARP positive nuclei fraction (G361) | cleaved PARP positive nuclei fraction (IPC-298) | cleaved PARP positive nuclei fraction (IST-MEL1) | cleaved PARP positive nuclei fraction (LB2518-MEL) | cleaved PARP positive nuclei fraction (LOXIMVI)
NC(=O)Nc1cc(-c2cccc(F)c2)sc1C(=O)N[C@H]1CCCNC1 + COc1ccc(COc2ccc(Cc3cnc(N)nc3N)cc2OC)cc1 [GW2580] (first compound 0.02 µM, partner dose 1 µM) | 164% | 48.9% | 154% | 4770% | 43.6% | 60.1% | 98.8% | 117% | 86.7% | 155% | 178% | 151% | 87.3% | 64.9% | 188% | 82.2% | 124% | 36.9%
Cn1c(Nc2ccc(C(F)(F)F)cc2)nc2cc(Oc3ccnc(-c4ncc(C(F)(F)F)[nH]4)c3)ccc21 + COc1ccc(COc2ccc(Cc3cnc(N)nc3N)cc2OC)cc1 [GW2580] (first compound 0.08 µM, partner dose 1 µM) | 107% | 395% | 76.4% | 420% | 60.7% | 130% | 121% | 138% | 103% | 97.2% | 461% | 127% | 170% | 129% | 202% | 142% | 246% | 45.5%
Cc1ccc(NC(=O)c2cccc(N(C)C)c2)cc1NC(=O)c1ccc(O)cc1 + O=c1cc(-c2cccc3c2Sc2ccccc2S3)oc(N2CCOCC2)c1 [KU55933] (first compound 2 µM, partner dose 1 µM) | 228% | 145% | 57.2% | 91.4% | 73.1% | 67% | 117% | 106% | 89.3% | 211% | 114% | 159% | 130% | 54% | 35.8% | 41% | 80.7% | 44.6%
COCC[n+]1c2c(n(Cc3cnccn3)c1C)C(=O)c1ccccc1C2=O + O=c1cc(-c2cccc3c2Sc2ccccc2S3)oc(N2CCOCC2)c1 [KU55933] (first compound 0.0004 µM, partner dose 1 µM) | 92.8% | 109% | 397% | 141% | 85.7% | 34.4% | 186% | 88.9% | 93.9% | 44.1% | 98% | 248% | 118% | 93.2% | 146% | 63.9% | 93.5% | 51.9%
C=CCn1c(=O)c2cnc(Nc3ccc(N4CCN(C)CC4)cc3)nc2n1-c1cccc(C(C)(C)O)n1 + Cn1cc(/C=C2\C(=O)Nc3cccnc32)c2ccccc21 [GW441756] (first compound 0.02 µM, partner dose 0.4 µM) | 110% | 100% | 190% | 235% | 117% | 241% | 114% | 89.6% | 79% | 89.7% | 172% | 114% | 39.4% | 82.5% | 77.8% | 67% | 119% | 123%
COCC[n+]1c2c(n(Cc3cnccn3)c1C)C(=O)c1ccccc1C2=O + COc1cc(N2CCC(N3CCN(C)CC3)CC2)ccc1Nc1ncc(Cl)c(Nc2ccccc2S(=O)(=O)C(C)C)n1 [NVP-TAE684] (first compound 0.0004 µM, partner dose 0.08 µM) | 35.6% | 72.5% | 117% | 191% | 26.2% | 281% | 104% | 68.8% | 69.4% | 70.9% | 67.7% | 74.5% | 146% | 135% | 374% | 116% | 96.6% | 53.5%
Cc1ccc(NC(=O)c2cccc(N(C)C)c2)cc1NC(=O)c1ccc(O)cc1 + Cc1cc([N+](=O)[O-])ccc1NS(=O)(=O)c1cc(Cl)ccc1Cl [FH535] (first compound 2 µM, partner dose 1 µM) | 84.3% | 59.7% | 116% | 60.2% | 142% | 34.8% | 189% | 275% | 301% | 295% | 36.4% | 35% | 90.7% | 92% | 158% | 75.4% | 100% | 45%
C[C@]1(c2nc3c(C(N)=O)cccc3[nH]2)CCCN1 [Veliparib] + Oc1nc(-c2ccc(C(F)(F)F)cc2)nc2c1CSCC2 [XAV939] (first compound 1.4 µM, partner dose 2 µM) | 174% | 70.1% | 244% | 86.7% | 69.2% | 68.1% | 114% | 36.2% | 84.7% | 46.6% | 103% | 128% | 43.3% | 120% | 43.3% | 97.1% | 96% | 42.4%
C[C@@H]1CCN(C(=O)CC#N)C[C@@H]1N(C)c1ncnc2[nH]ccc12 + c1cc(-c2cnn3cc(-c4ccc(OCCN5CCCCC5)cc4)cnc23)ccn1 [Dorsomorphin] (first compound 1 µM, partner dose 0.4 µM) | 68.9% | 96.4% | 86.1% | 112% | 39.7% | 53.8% | 113% | 29.1% | 81.7% | 80.6% | 45% | 49.9% | 57.4% | 32.8% | 64% | 133% | 88.7% | 57.6%
Cc1ccc(NC(=O)c2cccc(N(C)C)c2)cc1NC(=O)c1ccc(O)cc1 + CC(C)CCN1c2nc(Nc3cc(F)c(O)c(F)c3)ncc2N(C)C(=O)C1C [BID1870] (first compound 2 µM, partner dose 0.2 µM) | 43.1% | 69.9% | 47.1% | 209% | 111% | 328% | 164% | 24.5% | 178% | 94.1% | 57.4% | 124% | 41.3% | 112% | 31.1% | 135% | 82.5% | 154%
CC(C)(C)c1cnc(CSc2cnc(NC(=O)C3CCNCC3)s2)o1 + O=c1cc(-c2cccc3c2Sc2ccccc2S3)oc(N2CCOCC2)c1 [KU55933] (first compound 0.01 µM, partner dose 1 µM) | 78.4% | 54.9% | 26% | 37.6% | 92.9% | 46.8% | 101% | 58.7% | 88.8% | 104% | 175% | 68.4% | 107% | 33.7% | 262% | 46.1% | 321% | 69.2%
Cc1nc(Nc2ncc(C(=O)Nc3c(C)cccc3Cl)s2)cc(N2CCN(CCO)CC2)n1 [dasatanib] + COc1cc2ncnc(Nc3ccc(Oc4ccccc4)cc3)c2cc1OC [SrcI1] (first compound 0.004 µM, partner dose 2 µM) | 157% | 71.8% | 130% | 152% | 206% | 180% | 145% | 146% | 89.6% | 94.6% | 259% | 50% | 95.3% | 68.3% | 42.8% | 70.3% | 79.1% | 121%
OCCn1cc(-c2cnc3nnn(Cc4ccc5ncccc5c4)c3n2)cn1 + COC(=O)c1sccc1S(=O)(=O)Nc1ccc(Nc2ccccc2)cc1OC [GSK0660] (first compound 1 µM, partner dose 1 µM) | 178% | 65.8% | 70.9% | 128% | 122% | 57.5% | 102% | 24.4% | 94.8% | 97.6% | 90.5% | 75.6% | 179% | 89.5% | 56.5% | 121% | 75.2% | 32.1%
CC(C)(C)c1cnc(CSc2cnc(NC(=O)C3CCNCC3)s2)o1 + CCCCCCCCCCCC1=C(O)C(=O)C=C(O)C1=O [Embelin] (first compound 0.01 µM, partner dose 1.2 µM) | 128% | 168% | 98% | 105% | 73.7% | 42.7% | 109% | 106% | 92.9% | 250% | 139% | 34.8% | 90.6% | 96.9% | 29.8% | 39.5% | 104% | 47.8%
C[C@]1(c2nc3c(C(N)=O)cccc3[nH]2)CCCN1 [Veliparib] + Cc1cc([N+](=O)[O-])ccc1NS(=O)(=O)c1cc(Cl)ccc1Cl [FH535] (first compound 1.4 µM, partner dose 1 µM) | 152% | 72.7% | 158% | 182% | 114% | 103% | 162% | 951% | 432% | 227% | 160% | 90.4% | 103% | 101% | 45% | 111% | 99.5% | 38.2%
C#Cc1cccc(Nc2ncnc3cc(OCCOC)c(OCCOC)cc23)c1 [erlotinib] + O=C1NC(=O)/C(=C/c2ccc(-c3ccc(F)cc3O)o2)S1 [AS252424] (first compound 0.8 µM, partner dose 1 µM) | 152% | 108% | 196% | 105% | 64% | 84.7% | 112% | 118% | 115% | 61.5% | 111% | 148% | 72.4% | 174% | 133% | 101% | 83.1% | 35.6%
NC(=O)Nc1cc(-c2cccc(F)c2)sc1C(=O)N[C@H]1CCCNC1 + c1cc(-c2cnn3cc(-c4ccc(OCCN5CCCCC5)cc4)cnc23)ccn1 [Dorsomorphin] (first compound 0.02 µM, partner dose 0.4 µM) | 27.8% | 81.8% | 69.3% | 445% | 152% | 136% | 116% | 54.3% | 86.6% | 46.1% | 60.4% | 110% | 115% | 165% | 103% | 242% | 72.1% | 59.3%
COCC[n+]1c2c(n(Cc3cnccn3)c1C)C(=O)c1ccccc1C2=O + CCN(CC)CCCCNc1ncc2cc(-c3cc(OC)cc(OC)c3)c(NC(=O)NC(C)(C)C)nc2n1 [PD173074] (first compound 0.0004 µM, partner dose 0.1 µM) | 149% | 206% | 356% | 341% | 88.2% | 73.9% | 82.7% | 119% | 89.8% | 46.3% | 80% | 143% | 70.1% | 83% | 93.1% | 158% | 186% | 49.7%

Complete entries as entered above. Values in the order: cleaved PARP positive nuclei fraction (501Mel)	cleaved PARP positive nuclei fraction (A101D)	cleaved PARP positive nuclei fraction (A2058)	cleaved PARP positive nuclei fraction (A375)	cleaved PARP positive nuclei fraction (C32)	cleaved PARP positive nuclei fraction (CBRC013)	cleaved PARP positive nuclei fraction (CBRC014)	cleaved PARP positive nuclei fraction (CBRC016)	cleaved PARP positive nuclei fraction (CBRC017)	cleaved PARP positive nuclei fraction (CBRC034)	cleaved PARP positive nuclei fraction (COLO792)	cleaved PARP positive nuclei fraction (COLO800)	cleaved PARP positive nuclei fraction (COLO829)	cleaved PARP positive nuclei fraction (G361)	cleaved PARP positive nuclei fraction (IPC-298)	cleaved PARP positive nuclei fraction (IST-MEL1)	cleaved PARP positive nuclei fraction (LB2518-MEL)	cleaved PARP positive nuclei fraction (LOXIMVI)
COCC[n+]1c2c(n(Cc3cnccn3)c1C)C(=O)c1ccccc1C2=O + COc1cc(N2CCC(N3CCN(C)CC3)CC2)ccc1Nc1ncc(Cl)c(Nc2ccccc2S(=O)(=O)C(C)C)n1 [NVP-TAE684] (first compound 0.0004 µM, partner dose 0.08 µM) is listed with 35.6%	72.5%	117%	191%	26.2%	281%	104%	68.8%	69.4%	70.9%	67.7%	74.5%	146%	135%	374%	116%	96.6%	53.5%
Cc1nc(Nc2ncc(C(=O)Nc3c(C)cccc3Cl)s2)cc(N2CCN(CCO)CC2)n1 [dasatanib] + COc1cc2ncnc(Nc3ccc(Oc4ccccc4)cc3)c2cc1OC [SrcI1] (first compound 0.004 µM, partner dose 2 µM) is listed with 157%	71.8%	130%	152%	206%	180%	145%	146%	89.6%	94.6%	259%	50%	95.3%	68.3%	42.8%	70.3%	79.1%	121%
